Assay: Western blot (anti-6xHis) of xylose isomerase expression in yeast, total/soluble/insoluble extract
Design: species or system Saccharomyces cerevisiae
Conditions: His-tagged xylose isomerase in BY4742, FIG. 7

B1: Ruminococcus flavefaciens: native xylose isomerase from Ruminococcus flavefaciens strain 17 (SEQ ID NO: 31) (protein, listed as Ruminococcus flavefaciens)
chain: MEFFSNIGKIQYQGPKSTDPLSFKYYNPEEVINGKTMREHLKFALSWWHTMGGDGTDMFGCGTTDKTWGQSDPAARAKAKVDAAFEIMDKLSIDYYCFHDRDLSPEYGSLKATNDQLDIVTDYIKEKQGDKFKCLWGTAKCFDHPRFMHGAGTSPSADVFAFSAAQIKKALESTVKLGGNGYVFWGGREGYETLLNTNMGLELDNMARLMKMAVEYGRSIGFKGDFYIEPKPKEPTKHQYDFDTATVLGFLRKYGLDKDFKMNIEANHATLAQHTFQHELRVARDNGVFGSIDANQGDVLLGWDTDQFPTNIYDTTMCMYEVIKAGGFTNGGLNFDAKARRGSFTPEDIFYSYIAGMDAFALGFRAALKLIEDGRIDKFVADRYASWNTGIGADIIAGKADFASLEKYALEKGEVTASLSSGRQEMLESIVNNVLFSL
  expression in soluble and insoluble fractions (western): expressed in both the soluble and insoluble fractions
Listed as wild type R. flavefaciens xylose isomerase
  expression in soluble and insoluble fractions (western): expressed in the soluble fraction

Source: patent US20110165660A1, “ENGINEERED MICROORGANISMS WITH ENHANCED FERMENTATION ACTIVITY” (VERDEZYNE, INC., priority 2009, published 2011)
